The results in this text go back to PMC6225478, “Natural Scaffolds with Multi-Target Activity for the Potential Treatment of Alzheimer’s Disease” (Molecules : A Journal of Synthetic Chemistry and Natural …, 2018).

“Also recorded” adds a separate entry of the source.

This data set is described as follows: Metal-ligand interaction by UV spectrophotometry, copper. In kind it is physicochemical. Conditions: pH 7.4, copper (II)/ligand 4:1; preliminary qualitative test.
For `Oc1c(I)cc(Cl)c2cccnc12` [Clioquinol, reference compound], the “Interaction with copper (II) (UV spectra)” value (from here on “Interaction with copper (II)”) is “well-known chelating compound”.

For `CC[C@H](C)[C@@H]1NC(=O)C(C(C)=O)=C1O` [Compound 1, Tenuazonic acid], the “Interaction with copper (II)” value was “possible interaction; also recorded: capability of interaction with copper (II)”.

Turning to `COc1c(C)c2c(c(O)c1C/C=C(\C)CCC(=O)O)C(=O)OC2` [Compound 3, Mycophenolic acid], the “Interaction with copper (II)” value is “possible interaction; also recorded: capability of interaction with copper (II)”.

As to `COc1cc(O)c2c(c1)C[C@@H](C)OC2=O` [Compound 4, 6-Methoxymellein], the “Interaction with copper (II)” value is “possible interaction”.
